Measured data: PubChem BioAssay AID1259280 (Sanger Institute, 2017)

Purpose: 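Essential kinases and drug-combination synergies in SNU407 cells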 (primary screen)
Cell system: human SNU407 colorectal cancer cells
Reagents: siRNA pool against human genes
Treatment: anchor drugs BYL719 at 1 µM, cetuximab at 5 µg/ml or trametinib at 10 nM, or DMSO vehicle alone; exposure time not given
Measured: 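Viability per well scaled to a non-targeting pool and averaged over replicates, with a robust z-score from controls and a synergy score per anchor drug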
Reading the numbers: viability z-score, no drug: higher = more cells survive the knock-down
Hit rule: 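a knock-down counts as essential when its robust viability z-score without drug is below -3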
Meaning of the calls: active = essential (knock-down alone kills cells); inactive = no change without drug
In all, the deposit lists 794 reagents; shown is a random part of them. 12 of them (1.5%) were called active. 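Calls cover knock-down without drug only; synergy scores stand apart, values above 0.15 being treated as synergy.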 Not all columns of the deposit are shown. The record does not give: the amount of reagent, the time to read-out.

PDK4 (GeneID 5166) scored viability z-score, no drug 0.901; inactive.
CDK17 (GeneID 5128) gave viability z-score, no drug 0.425; inactive.
With knock-down of IP6K1 (GeneID 9807), the screen gave viability z-score, no drug 0.901; inactive.
RFK (GeneID 55312) showed viability z-score, no drug -0.108; inactive.
Against MAP2K4 (GeneID 6416) the deposit lists viability z-score, no drug 0.334; inactive.
After knock-down of AKT2 (GeneID 208), the record shows viability z-score, no drug -0.329; inactive.
SBK1 (GeneID 388228) gave viability z-score, no drug -0.0222; inactive.
With knock-down of MARK4 (GeneID 57787), the screen gave viability z-score, no drug 0.901; inactive.
RAD21 (GeneID 5885) gave viability z-score, no drug -2.35; inactive.
After knock-down of HIPK4 (GeneID 147746) the results were viability z-score, no drug 0.901; inactive.
After knock-down of MAGI1 (GeneID 9223), the record shows viability z-score, no drug 0.901; inactive.
Silencing of MAP2K5 (GeneID 5607) came out at: viability z-score, no drug 0.838; inactive.
ABL2 (GeneID 27) scored viability z-score, no drug 0.317; inactive.
After knock-down of CNOT1 (GeneID 23019), the record shows viability z-score, no drug -2.5; inactive.
Knock-down of ERN2 (GeneID 10595) gave: viability z-score, no drug 0.901; inactive.
Knock-down of MARK3 (GeneID 4140) gave: viability z-score, no drug 0.0142; inactive.
Against DDR1 (GeneID 780), the entry reads viability z-score, no drug -0.462; inactive.
Silencing of NEK9 (GeneID 91754) came out at: viability z-score, no drug 0.858; inactive.
CAMKV (GeneID 79012) showed viability z-score, no drug -0.705; inactive.
Against CDK11A (GeneID 728642), the entry reads viability z-score, no drug -2.4; inactive.
Against CTCF (GeneID 10664) the deposit lists viability z-score, no drug -3.25; active.
With knock-down of GALK2 (GeneID 2585), the record shows viability z-score, no drug -1.37; inactive.
Depletion of GRK5 (GeneID 2869) resulted in: viability z-score, no drug 0.026; inactive.
Depletion of ATP23 (GeneID 91419) resulted in: viability z-score, no drug 0.311; inactive.
With knock-down of AK7 (GeneID 122481), the record shows viability z-score, no drug -0.632; inactive.
Against AK2 (GeneID 204), the entry reads viability z-score, no drug 0.901; inactive.
For LCK (GeneID 3932), the entry reads viability z-score, no drug -1.28; inactive.
NME4 (GeneID 4833) showed viability z-score, no drug 0.901; inactive.

In a second layout: entries from further up.
{"Target gene": "AKT2 (GeneID 208)", "viability z-score, no drug": -0.329, "Call": "inactive"}
{"Target gene": "SBK1 (GeneID 388228)", "viability z-score, no drug": -0.0222, "Call": "inactive"}
